Measurements reported in patent US20230220000 (published 2023).

Experiments:
[1] = general procedure: Fmoc solid-phase peptide synthesis; Fmoc amide resin; Sieber resin (0.6 mmol/g); PyBOP/collidine or PyBOP/DIEA (side chain); DEPT/DIEA (N-terminal His); DIC/ethy; settings: sodium salt
[2] = general procedure: Fmoc solid-phase peptide synthesis; Fmoc Sieber resin; PyBOP/collidine or PyBOP/DIEA (side chain); DEPT/DIEA (N-terminal His); DIC/ethy; settings: whole synthesis, zwitterionic form; sodium salt
[3] = whole synthesis, scale of the general procedure 28 g Sieber resin, 1.4 kg Sieber resin, zwitterionic form
[4] = whole synthesis, UPLC, scale of the general procedure 28 g Sieber resin, 1.4 kg Sieber resin, zwitterionic form

Row | Substance | final purity (method not given) ([1]; purification step, HPLC area percent, UPLC, zwitterionic form, run 1) | step yield ([1]; purification step, zwitterionic form, run 1) | step yield ([1]; purification step, zwitterionic form, run 2) [% yield] | final HPLC purity ([1]; whole synthesis, HPLC area percent, UPLC, scale of the general procedure 28 g Sieber resin, 1.4 kg Sieber resin) | crude HPLC purity ([1]; whole synthesis, HPLC area percent, UPLC, scale of the general procedure 28 g Sieber resin, 1.4 kg Sieber resin, zwitterionic form) | crude yield ([1]; whole synthesis, contained yield based on Sieber resin, scale of the general procedure 28 g Sieber resin, 1.4 kg Sieber resin, zwitterionic form) [%] | isolated yield ([1]; whole synthesis, overall process yield from Sieber resin, scale of the general procedure 28 g Sieber resin, 1.4 kg Sieber resin) [%] | difficulty met [1, 3] | isolated mass ([1]; whole synthesis) [g] | crude HPLC purity [1, 4] | crude yield [1, 3] [%] | crude mass ([1]; whole synthesis, zwitterionic form) [g] | crude mass [2] [g]
1 | H2N-H-Aib-QGTFTSDYSKYLDEKKAKEFVEWLLEGGPSSG-NH2 | 93% purity and 98% purity | 83% yield and 93.6% yield | 95 | greater than 95.0% HPLC purity | 65% HPLC area percent purity | 47 | 25 | In contrast, coupling individual Fmoc-L-Gly and Fmoc-L-Thr amino acids result in high levels of peptide impurities having a Thr5 deletion. | 10 | – | – | – | –
2 | Boc-His(Dnp)-Aib-Gln(Trt)-Gly-Thr(^tBu)-OH | – | – | – | – | – | – | – | – | – | 88.1% | 91.4 | 2.255 | –
3 | Boc-His(Dnp)-Aib-Gln(Trt)-Gly-OH | – | – | – | – | – | – | – | – | – | 97.66% UPLC purity | 87.8 | – | 1.89

Values joined by “and” are separate entries in the source; they are usually repeats but may differ in a detail not shown here. Equal entries are not always repeated.
